Measured values published in article PMC3022755, “HP1 Recruits Activity-Dependent Neuroprotective Protein to H3K9me3 Marked Pericentromeric Heterochromatin for Silencing of Major Satellite Repeats” (PLoS ONE, 2011).

Target: H3K9me3 peptide, …(me3)…-biotin
Test: affinity purification with mass spectrometry; H3 (aa 1-21) peptides unmodified or K9me3 immobilized on magnetic beads, incubated with HeLa S3 nuclear extract; SDS-PAGE, whole lanes digested, MS/MS; sets of the pulldowns subtracted; only the target purified

binding: binds
B1: CDYL1, endogenous in HeLa S3 nuclear extract (protein, UniProt Q9Y232 1-598)
chain: MTFQASHRSAWGKSRKKNWQYEGPTQKLFLKRNNVSAPDGPSDPSISVSSEQSGAQQPPALQVERIVDKRKNKKGKTEYLVRWKGYDSEDDTWEPEQHLVNCEEYIHDFNRRHTEKQKESTLTRTNRTSPNNARKQISRSTNSNFSKTSPKALVIGKDHESKNSQLFAASQKFRKNTAPSLSSRKNMDLAKSGIKILVPKSPVKSRTAVDGFQSESPEKLDPVEQGQEDTVAPEVAAEKPVGALLGPGAERARMGSRPRIHPLVPQVPGPVTAAMATGLAVNGKGTSPFMDALTANGTTNIQTSVTGVTASKRKFIDDRRDQPFDKRLRFSVRQTESAYRYRDIVVRKQDGFTHILLSTKSSENNSLNPEVMREVQSALSTAAADDSKLVLLSAVGSVFCCGLDFIYFIRRLTDDRKRESTKMAEAIRNFVNTFIQFKKPIIVAVNGPAIGLGASILPLCDVVWANEKAWFQTPYTTFGQSPDGCSTVMFPKIMGGASANEMLLSGRKLTAQEACGKGLVSQVFWPGTFTQEVMVRIKELASCNPVVLEESKALVRCNMKMELEQANERECEVLKKIWGSAQGMDSMLKYLQRKIDEF

These are yes or no findings as the source states them, for the method shown. Binding seen in cells or lysates may run through a third protein. A yes stands for co-enrichment or nearness to the bait. Other partners may have been found.
